For at least one compound, name, drawing or mass did not settle the structure.
Tested on: phosphorylated STAT3
Test: Immunohistochemical analysis of ear sections from the DTH model
Format: in vivo, Balb/c mice
Settings: mouse ears

`C[C@@H]1C[C@H]2[C@@H]3CCC4=CC(=O)C=C[C@]4(C)[C@@]3(F)[C@@H](O)C[C@]2(C)[C@@]1(O)C(=O)CO` [dexamethasone] was tested, and the “number of infiltrating cells” value was “reduce the number of infiltrating cells”.
